No constants are given. Whether binding was seen depends on the method and setting. Some entries that bind do so weakly or less than the wild type.
T1: Cse1 (CasA) (E. coli) (UniProt Q46901)
T1 sequence: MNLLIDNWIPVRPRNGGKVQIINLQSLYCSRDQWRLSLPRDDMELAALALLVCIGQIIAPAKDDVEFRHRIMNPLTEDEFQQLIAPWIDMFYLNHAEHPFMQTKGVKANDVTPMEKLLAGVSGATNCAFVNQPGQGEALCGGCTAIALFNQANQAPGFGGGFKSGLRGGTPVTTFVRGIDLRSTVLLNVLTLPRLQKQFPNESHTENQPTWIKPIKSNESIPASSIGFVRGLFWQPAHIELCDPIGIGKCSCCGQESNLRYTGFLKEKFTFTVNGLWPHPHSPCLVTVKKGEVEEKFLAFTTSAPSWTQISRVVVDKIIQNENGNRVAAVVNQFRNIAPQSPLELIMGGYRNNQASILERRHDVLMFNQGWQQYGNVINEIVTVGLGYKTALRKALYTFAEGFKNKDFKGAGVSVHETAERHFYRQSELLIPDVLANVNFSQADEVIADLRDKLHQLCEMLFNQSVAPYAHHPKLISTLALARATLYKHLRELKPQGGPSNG


Biological target: T1, Cse1 (CasA) (E. coli)
Assay: SEC; Cascade+: nickel-column eluate on Superdex 200 HiLoad 16/60, 20 mM HEPES-K pH 7.5, 150 mM NaCl; major ~400 kDa peak read by SDS-PAGE and LC-MS in solution

Row | Binder | binding
1 | Cas6e (CasE) (enzyme, UniProt Q46897 1-199) MYLSKVIIARAWSRDLYQLHQGLWHLFPNRPDAARDFLFHVEKRNTPEGCHVLLQSAQMPVSTAVATVIKTKQVEFQLQVGVPLYFRLRANPIKTILDNQKRLDSKGNIKRCRVPLIKEAEQIAWLQRKLGNAARVEDVHPISERPQYFSGDGKSGKIQTVCFEGVLTINDAPALIDLVQQGIGPAKSMGCGLLSLAPL | binds
2 | Cas7 (CasC) (protein, UniProt Q46899 1-363) MSNFINIHVLISHSPSCLNRDDMNMQKDAIFGGKRRVRISSQSLKRAMRKSGYYAQNIGESSLRTIHLAQLRDVLRQKLGERFDQKIIDKTLALLSGKSVDEAEKISADAVTPWVVGEIAWFCEQVAKAEADNLDDKKLLKVLKEDIAAIRVNLQQGVDIALSGRMATSGMMTELGKVDGAMSIAHAITTHQVDSDIDWFTAVDDLQEQGSAHLGTQEFSSGVFYRYANINLAQLQENLGGASREQALEIATHVVHMLATEVPGAKQRTYAAFNPADMVMVNFSDMPLSMANAFEKAVKAKDGFLQPSIQAFNQYWDRVANGYGLNGAAAQFSLSDVDPITAQVKQMPTLEQLKSWVRNNGEA | binds

More lines, now with the values ahead:

Row | binding | Binder
3 | binds | Cse2 (CasB) (protein, UniProt P76632 1-160) MADEIDAMALYRAWQQLDNGSCAQIRRVSEPDELRDIPAFYRLVQPFGWENPRHQQALLRMVFCLSAGKNVIRHQDKKSEQTTGISLGRALANSGRINERRIFQLIRADRTADMVQLRRLLTHAEPVLDWPLMARMLTWWGKRERQQLLEDFVLTTNKNA
4 | binds | Cas5 (CasD) (protein, UniProt Q46898 1-224) MRSYLILRLAGPMQAWGQPTFEGTRPTGRFPTRSGLLGLLGACLGIQRDDTSSLQALSESVQFAVRCDELILDDRRVSVTGLRDYHTVLGAREDYRGLKSHETIQTWREYLCDASFTVALWLTPHATMVISELEKAVLKPRYTPYLGRRSCPLTHPLFLGTCQASDPQKALLNYEPVGGDIYSEESVTGHHLKFTARDEPMITLPRQFASREWYVIKGGMDVSQ

— publication PMC4288178, “CRISPR RNA binding and DNA target recognition by purified Cascade complexes from Escherichia coli”
